Binding data for one molecule are collected here from article PMC7600425, “Modulation of Guanylate Cyclase Activating Protein 1 (GCAP1) Dimeric Assembly by Ca^2+ or Mg^2+: Hints to Understand Protein Activity” (Biomolecules, 2020).

The target in this assay is chicken GCAP1 (chicken) (UniProt P79880). Nature of the assay: SEC-MALS; data not shown; chicken GCAP1, said to be analogous to hGCAP1 in the salt-free buffer after addition of 1 mM calcium; both purified.

Results are given in words; binding and its absence hold for the method and conditions named. Some results given as binding are weak or reduced against the parent protein; the word gives no strength.

B1: chicken GCAP1 (protein, UniProt P79880 7-199)
chain: KAVEELSATECHQWYKKFMTECPSGQLTLYEFKQFFGLKNLSPSANKYVEQMFETFDFNKDGYIDFMEYVAALSLVLKGKVDQKLRWYFKLYDVDGNGCIDRGELLNIIKAIRAINRCNEAMTAEEFTNMVFDKIDINGDGELSLEEFMEGVQKDEVLLDILTRSLDLTHIVKLIQNDGKNPHAPEEAEEAAQ
As for B1, the binding result was “binds”.
